Test results reported in patent publication US7727986B2, “Pesticide pyrimidinyloxy substituted phenylamidine derivatives” (Bayer CropScience AG, priority 2005, dated 2010).
Some results were stated once for a whole list of compounds, not compound by compound.

Legend:
[1] = system: Puccinia recondita f. Sp. tritici; assay: In vivo preventive test on Puccinia recondita f. Sp. tritici (wheat brown rust); details: 1000 ppm of active ingredient, evaluated 10 days after inoculation
[2] = system: Erysiphe graminis f. sp. hordei; assay: In vivo preventive test on Erysiphe gramini (powdery mildew on barley); details: 1000 ppm of active ingredient, evaluated 7 days after inoculation
Uromyces appendiculatus = assay: In vivo protective test on Uromyces appendiculatus (beans); details: 100 ppm of active ingredient, evaluated 10 days after inoculation
Sphaerotheca fuliginea = assay: In vivo protective test on Sphaerotheca fuliginea (cucumbers); details: 100 ppm of active ingredient, evaluated 7 days after inoculation

| SMILES | efficacy [1] | efficacy [2] | efficacy (Uromyces appendiculatus) | efficacy (Sphaerotheca fuliginea) |
| --- | --- | --- | --- | --- |
| CCCN(C)C=Nc1cc(C)c(Oc2ccnc(Oc3cccc(Cl)c3C)n2)cc1C [Compound 18] | ≥ 70% | ≥ 70% |  |  |
| CCN(C)C=Nc1cc(C)c(Oc2ccnc(N(C)C)n2)cc1C [Compound 37] | ≥ 70% | ≥ 70% |  |  |
| Cc1cc(Oc2cc(C)c(N=CN(C)C(C)C)cc2C)nc(Cl)n1 [Compound 41] | ≥ 70% | ≥ 70% | ≥ 70% | ≥ 70% |
| CCN(C)C=Nc1cc(C)c(Oc2ccnc(Oc3cccc(Cl)c3)n2)cc1C [Compound 65] | ≥ 70% |  |  |  |
